In the supplement of paper PMC12819154, “High-throughput peptide-centric local stability assay extends protein–ligand identification to membrane proteins, tissues and bacteria” (Nature Structural & Molecular Biology, 2025):
The entries are a selection whose mix differs from that of the whole data set. Small differences around the control level are noise.

Chains of the proteins cited; added tags and fusions are not shown. Lines headed by an entry give the natural chain unless they say otherwise; changes in a name come on top.
UniProt P52643: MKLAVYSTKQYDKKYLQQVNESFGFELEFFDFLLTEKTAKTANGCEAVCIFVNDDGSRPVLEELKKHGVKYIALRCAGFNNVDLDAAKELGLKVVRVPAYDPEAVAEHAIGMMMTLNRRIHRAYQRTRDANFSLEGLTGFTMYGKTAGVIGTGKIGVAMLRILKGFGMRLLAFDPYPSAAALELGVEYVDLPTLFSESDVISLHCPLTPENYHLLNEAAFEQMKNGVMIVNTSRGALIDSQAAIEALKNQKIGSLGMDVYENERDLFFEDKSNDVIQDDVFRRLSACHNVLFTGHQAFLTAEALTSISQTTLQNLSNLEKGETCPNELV
UniProt P52636: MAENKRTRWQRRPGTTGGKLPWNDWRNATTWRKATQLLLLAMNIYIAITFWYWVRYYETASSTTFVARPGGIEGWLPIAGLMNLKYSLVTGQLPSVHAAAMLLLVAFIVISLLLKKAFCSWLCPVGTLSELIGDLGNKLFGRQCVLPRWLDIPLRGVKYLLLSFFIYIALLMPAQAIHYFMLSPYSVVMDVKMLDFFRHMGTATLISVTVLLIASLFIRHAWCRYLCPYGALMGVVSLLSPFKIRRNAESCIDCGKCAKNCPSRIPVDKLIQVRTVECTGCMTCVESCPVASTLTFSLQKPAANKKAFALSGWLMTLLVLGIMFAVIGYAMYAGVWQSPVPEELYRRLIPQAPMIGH
UniProt P45424: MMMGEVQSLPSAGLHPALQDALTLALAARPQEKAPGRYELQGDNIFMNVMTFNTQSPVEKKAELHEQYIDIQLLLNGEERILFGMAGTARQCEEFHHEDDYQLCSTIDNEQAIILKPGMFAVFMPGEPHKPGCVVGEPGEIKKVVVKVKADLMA
UniProt P52062: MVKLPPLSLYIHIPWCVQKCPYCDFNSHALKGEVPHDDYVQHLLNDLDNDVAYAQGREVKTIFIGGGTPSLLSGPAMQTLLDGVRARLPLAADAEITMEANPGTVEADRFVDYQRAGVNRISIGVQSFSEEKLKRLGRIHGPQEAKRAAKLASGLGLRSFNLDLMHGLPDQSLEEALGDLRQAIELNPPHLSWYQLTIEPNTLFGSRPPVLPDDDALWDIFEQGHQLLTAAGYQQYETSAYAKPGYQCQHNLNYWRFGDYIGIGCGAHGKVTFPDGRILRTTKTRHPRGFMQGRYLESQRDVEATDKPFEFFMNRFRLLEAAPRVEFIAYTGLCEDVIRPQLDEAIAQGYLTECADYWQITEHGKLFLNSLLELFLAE
UniProt P45524: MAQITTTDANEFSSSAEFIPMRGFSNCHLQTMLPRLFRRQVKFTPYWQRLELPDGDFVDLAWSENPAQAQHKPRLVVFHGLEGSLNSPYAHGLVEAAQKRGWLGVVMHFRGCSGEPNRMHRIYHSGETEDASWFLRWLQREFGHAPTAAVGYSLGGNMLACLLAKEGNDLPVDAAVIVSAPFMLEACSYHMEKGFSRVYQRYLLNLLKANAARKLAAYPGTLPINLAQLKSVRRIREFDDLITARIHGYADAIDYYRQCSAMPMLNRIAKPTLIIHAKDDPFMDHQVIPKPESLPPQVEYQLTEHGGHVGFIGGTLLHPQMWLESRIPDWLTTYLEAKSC
UniProt P56262: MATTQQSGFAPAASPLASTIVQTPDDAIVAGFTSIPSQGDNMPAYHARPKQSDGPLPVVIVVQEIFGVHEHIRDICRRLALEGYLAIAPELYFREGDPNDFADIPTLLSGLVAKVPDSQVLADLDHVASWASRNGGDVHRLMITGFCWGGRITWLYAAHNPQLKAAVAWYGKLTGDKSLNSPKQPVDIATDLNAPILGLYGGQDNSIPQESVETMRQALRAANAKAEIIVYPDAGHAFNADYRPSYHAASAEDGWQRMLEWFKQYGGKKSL
UniProt P42909: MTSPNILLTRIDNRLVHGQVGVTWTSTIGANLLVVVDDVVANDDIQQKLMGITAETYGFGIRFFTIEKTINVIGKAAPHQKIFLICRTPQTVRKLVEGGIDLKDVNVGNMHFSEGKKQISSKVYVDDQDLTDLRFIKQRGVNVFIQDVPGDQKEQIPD
UniProt P45563: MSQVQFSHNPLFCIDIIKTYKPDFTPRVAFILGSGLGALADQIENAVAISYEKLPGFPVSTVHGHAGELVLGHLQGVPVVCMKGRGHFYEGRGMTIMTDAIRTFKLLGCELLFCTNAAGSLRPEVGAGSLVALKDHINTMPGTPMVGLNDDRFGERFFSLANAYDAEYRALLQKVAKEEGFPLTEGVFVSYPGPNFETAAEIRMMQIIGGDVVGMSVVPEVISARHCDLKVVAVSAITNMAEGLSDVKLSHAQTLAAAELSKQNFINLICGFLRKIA
UniProt P63235, whole entry: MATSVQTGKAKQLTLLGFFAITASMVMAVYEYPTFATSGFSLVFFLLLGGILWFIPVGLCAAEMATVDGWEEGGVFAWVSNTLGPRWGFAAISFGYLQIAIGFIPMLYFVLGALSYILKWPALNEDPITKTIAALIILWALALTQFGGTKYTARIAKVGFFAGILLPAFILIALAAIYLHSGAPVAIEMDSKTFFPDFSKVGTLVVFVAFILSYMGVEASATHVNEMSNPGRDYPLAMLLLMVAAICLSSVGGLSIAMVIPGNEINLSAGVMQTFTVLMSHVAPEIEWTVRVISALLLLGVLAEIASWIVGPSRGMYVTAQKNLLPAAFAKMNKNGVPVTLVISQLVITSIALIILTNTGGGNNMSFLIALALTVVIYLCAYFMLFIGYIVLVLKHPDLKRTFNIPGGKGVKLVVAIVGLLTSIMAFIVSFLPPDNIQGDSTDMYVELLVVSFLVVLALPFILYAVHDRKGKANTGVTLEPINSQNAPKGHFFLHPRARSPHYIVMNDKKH
UniProt P46890: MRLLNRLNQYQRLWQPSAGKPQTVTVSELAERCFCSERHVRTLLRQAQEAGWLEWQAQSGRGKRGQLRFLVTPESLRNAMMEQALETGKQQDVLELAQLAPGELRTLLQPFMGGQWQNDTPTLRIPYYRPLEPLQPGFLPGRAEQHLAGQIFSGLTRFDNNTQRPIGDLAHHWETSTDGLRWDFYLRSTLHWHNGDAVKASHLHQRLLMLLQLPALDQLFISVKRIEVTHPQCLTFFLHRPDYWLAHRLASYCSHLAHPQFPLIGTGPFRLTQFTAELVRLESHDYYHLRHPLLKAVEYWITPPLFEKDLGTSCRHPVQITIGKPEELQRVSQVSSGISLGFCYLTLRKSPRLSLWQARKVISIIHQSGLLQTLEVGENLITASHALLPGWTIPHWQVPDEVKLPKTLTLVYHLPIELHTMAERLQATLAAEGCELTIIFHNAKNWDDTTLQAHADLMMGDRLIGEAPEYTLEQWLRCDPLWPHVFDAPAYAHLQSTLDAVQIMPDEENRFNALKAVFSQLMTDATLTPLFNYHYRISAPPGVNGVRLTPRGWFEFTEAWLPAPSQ
UniProt P45544: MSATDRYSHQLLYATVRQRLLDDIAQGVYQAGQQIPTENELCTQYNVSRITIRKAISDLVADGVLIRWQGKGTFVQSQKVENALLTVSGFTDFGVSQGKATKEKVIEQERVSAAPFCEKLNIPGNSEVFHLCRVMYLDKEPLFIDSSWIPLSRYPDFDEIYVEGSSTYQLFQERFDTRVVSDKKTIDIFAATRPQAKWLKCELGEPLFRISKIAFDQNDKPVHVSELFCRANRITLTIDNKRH
UniProt P39358: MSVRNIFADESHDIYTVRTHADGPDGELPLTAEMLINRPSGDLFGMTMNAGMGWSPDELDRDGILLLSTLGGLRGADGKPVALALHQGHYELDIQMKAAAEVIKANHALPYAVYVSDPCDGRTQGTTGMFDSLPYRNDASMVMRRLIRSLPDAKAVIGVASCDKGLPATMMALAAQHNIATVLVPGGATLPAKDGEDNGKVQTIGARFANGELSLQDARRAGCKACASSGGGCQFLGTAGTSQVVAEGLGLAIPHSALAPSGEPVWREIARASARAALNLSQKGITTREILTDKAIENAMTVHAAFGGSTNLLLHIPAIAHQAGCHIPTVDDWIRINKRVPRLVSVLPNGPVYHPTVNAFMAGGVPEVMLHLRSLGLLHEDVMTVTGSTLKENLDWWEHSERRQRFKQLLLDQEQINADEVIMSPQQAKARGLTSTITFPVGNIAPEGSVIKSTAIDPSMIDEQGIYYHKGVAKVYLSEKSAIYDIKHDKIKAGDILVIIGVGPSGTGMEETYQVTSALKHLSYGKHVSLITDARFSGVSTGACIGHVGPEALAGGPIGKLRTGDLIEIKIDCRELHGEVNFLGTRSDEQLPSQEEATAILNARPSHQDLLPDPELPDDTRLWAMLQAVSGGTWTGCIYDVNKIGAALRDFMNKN
UniProt P39356: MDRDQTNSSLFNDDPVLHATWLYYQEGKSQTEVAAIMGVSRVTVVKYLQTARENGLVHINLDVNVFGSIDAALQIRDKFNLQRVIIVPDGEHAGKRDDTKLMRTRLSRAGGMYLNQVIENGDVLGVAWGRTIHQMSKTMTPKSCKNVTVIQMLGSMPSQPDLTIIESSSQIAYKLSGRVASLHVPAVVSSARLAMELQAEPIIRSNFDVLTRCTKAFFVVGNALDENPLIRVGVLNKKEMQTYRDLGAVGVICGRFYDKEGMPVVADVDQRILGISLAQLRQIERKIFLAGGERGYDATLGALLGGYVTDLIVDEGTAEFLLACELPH
UniProt P42620: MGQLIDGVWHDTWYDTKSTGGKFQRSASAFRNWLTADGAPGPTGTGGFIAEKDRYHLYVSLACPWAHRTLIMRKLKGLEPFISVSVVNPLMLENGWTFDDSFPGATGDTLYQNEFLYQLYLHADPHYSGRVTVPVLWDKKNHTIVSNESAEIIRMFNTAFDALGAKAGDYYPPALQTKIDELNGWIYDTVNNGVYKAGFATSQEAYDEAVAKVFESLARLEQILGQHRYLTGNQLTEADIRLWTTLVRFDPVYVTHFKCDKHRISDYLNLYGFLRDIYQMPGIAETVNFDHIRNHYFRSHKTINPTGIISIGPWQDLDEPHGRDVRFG
UniProt P46122: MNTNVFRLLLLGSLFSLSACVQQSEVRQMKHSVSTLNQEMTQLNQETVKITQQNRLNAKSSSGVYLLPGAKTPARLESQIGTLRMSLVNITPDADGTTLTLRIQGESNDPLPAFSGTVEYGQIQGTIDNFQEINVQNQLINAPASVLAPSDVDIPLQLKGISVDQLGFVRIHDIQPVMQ
UniProt P39376: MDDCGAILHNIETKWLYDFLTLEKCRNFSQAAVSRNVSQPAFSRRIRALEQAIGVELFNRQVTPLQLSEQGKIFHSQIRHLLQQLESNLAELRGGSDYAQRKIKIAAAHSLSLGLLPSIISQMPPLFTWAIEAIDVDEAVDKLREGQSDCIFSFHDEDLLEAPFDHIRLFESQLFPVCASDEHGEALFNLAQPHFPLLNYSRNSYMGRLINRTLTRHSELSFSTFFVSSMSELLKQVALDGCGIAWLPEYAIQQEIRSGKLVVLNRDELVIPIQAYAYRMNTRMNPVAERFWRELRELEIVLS
UniProt P51981: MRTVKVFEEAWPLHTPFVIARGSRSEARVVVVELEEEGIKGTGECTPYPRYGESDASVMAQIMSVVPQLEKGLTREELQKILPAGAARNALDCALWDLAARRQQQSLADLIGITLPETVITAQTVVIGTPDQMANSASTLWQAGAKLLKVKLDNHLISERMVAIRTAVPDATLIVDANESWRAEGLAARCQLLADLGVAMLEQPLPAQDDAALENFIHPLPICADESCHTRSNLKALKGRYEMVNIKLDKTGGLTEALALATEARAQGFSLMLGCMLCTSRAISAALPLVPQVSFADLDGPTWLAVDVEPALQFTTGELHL
UniProt P46853: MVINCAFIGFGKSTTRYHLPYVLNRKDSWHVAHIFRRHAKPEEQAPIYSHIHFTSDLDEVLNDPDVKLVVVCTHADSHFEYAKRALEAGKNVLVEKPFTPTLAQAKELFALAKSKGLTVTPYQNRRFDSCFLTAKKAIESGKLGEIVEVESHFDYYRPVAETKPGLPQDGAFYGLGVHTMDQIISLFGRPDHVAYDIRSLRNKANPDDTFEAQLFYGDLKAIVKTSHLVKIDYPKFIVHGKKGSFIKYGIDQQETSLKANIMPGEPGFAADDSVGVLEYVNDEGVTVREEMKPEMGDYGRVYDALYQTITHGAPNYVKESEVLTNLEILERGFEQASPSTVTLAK
UniProt P52613: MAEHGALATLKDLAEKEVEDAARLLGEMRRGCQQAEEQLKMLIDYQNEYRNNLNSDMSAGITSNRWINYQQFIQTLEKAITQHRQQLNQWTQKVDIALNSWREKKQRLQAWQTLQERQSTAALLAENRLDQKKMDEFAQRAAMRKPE
UniProt P41052: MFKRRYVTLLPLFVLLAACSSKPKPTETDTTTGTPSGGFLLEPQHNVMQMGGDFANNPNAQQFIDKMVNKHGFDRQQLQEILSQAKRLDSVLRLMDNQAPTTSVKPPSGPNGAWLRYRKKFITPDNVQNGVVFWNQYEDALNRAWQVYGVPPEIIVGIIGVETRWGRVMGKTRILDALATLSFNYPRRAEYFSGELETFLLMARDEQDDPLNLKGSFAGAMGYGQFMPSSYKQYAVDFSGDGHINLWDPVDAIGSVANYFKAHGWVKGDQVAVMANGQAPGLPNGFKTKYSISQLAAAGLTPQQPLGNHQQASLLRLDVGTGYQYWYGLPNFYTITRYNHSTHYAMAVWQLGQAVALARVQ

compound: Nc1ncnc2c1ncn2[C@@H]1O[C@H](COP(=O)(O)OP(=O)(O)OP(=O)(O)O)[C@@H](O)[C@H]1O [adenosine 5'-triphosphate]; experiment: log2 fold change of tryptic peptide abundance, ligand vs vehicle (limited proteolysis) (log2 ratio); higher = more trypsin-susceptible (destabilized); conditions: ligand concentration: 5 mM; sample: E. coli desalted lysate; replicate design: treated before aliquoting
Procedure: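 HT-PELSA: desalted E. coli K-12 BW25113 lysate (with 12 mM MgCl2) incubated with 5 mM ATP (pH 7) or water for 30 min at 25 C, then a 4 min trypsin pulse at 22 C. Peptides were quantified by DIA-MS (4 replicates). Value is the peptide log2 fold change (treated/control); negative = stabilized. Scale: negative = ligand-stabilized region.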
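Note: lysate desalted by size exclusion to strip endogenous ATP, peptide intensities built from DIA-NN precursor signals, and peptides missing any value discarded before comparison.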

Q: For “UniProt P43319 (peptide sequence: VNFGFINGQK, peptide start residue: 232)”, which log2 fold change is on record?
A: -0.205

Q: For “UniProt P39838 (peptide sequence: KGLQLLINNHLK, peptide start residue: 547)”, which log2 fold change is on record?
A: -0.274

Q: Which log2 fold change does the source give for “UniProt P52643 (peptide sequence: NGVMIVNTSR, peptide start residue: 225)” here?
A: -0.304

Q: For “UniProt P39391 (peptide sequence: QSGFSALSLAR, peptide start residue: 185)”, which log2 fold change is on record?
A: -0.206

Q: Which log2 fold change does the source give for “UniProt P40710 (peptide sequence: VLAPDTAGK, peptide start residue: 216)” here?
A: -0.311

Q: Which log2 fold change does the source give for “UniProt P52636 (peptide sequence: NAESCIDCGK, peptide start residue: 247)” here?
A: -0.317

Q: Which log2 fold change does the source give for “UniProt P52086 (peptide sequence: HGETQANIDGLYSGHAPTPLTAR, peptide start residue: 8)” here?
A: -0.168

Q: Which log2 fold change does the source give for “UniProt P46068 (peptide sequence: MHTFEVAAR, peptide start residue: 20)” here?
A: -0.169

Q: Which log2 fold change does the source give for “UniProt P39347 (peptide sequence: KLLANGVDPGDKK, peptide start residue: 48)” here?
A: -1.32

Q: “UniProt P39382 (peptide sequence: NTLLVLSHESR, peptide start residue: 216)” was tested. Which log2 fold change did it give?
A: -0.101

Q: “UniProt P39336 (peptide sequence: NQPDNVIKEK, peptide start residue: 539)” was tested. Which log2 fold change did it give?
A: -0.404

Q: How did the log2 fold change turn out when “UniProt P64588 (peptide sequence: FFGHGELR, peptide start residue: 57)” was run?
A: -0.27

Q: How did the log2 fold change turn out when “UniProt P39831 (peptide sequence: AVLPGMVER, peptide start residue: 116)” was run?
A: -0.175

Q: “UniProt P45424 (peptide sequence: ILFGMAGTAR, peptide start residue: 81)” was tested. Which log2 fold change did it give?
A: -0.12

Q: Which log2 fold change does the source give for “UniProt P52062 (peptide sequence: CPYCDFNSHALK, peptide start residue: 20)” here?
A: 1.12

Q: “UniProt P42624 (peptide sequence: AYLQSIHGK, peptide start residue: 181)” was tested. Which log2 fold change did it give?
A: 0.413

Q: Which log2 fold change does the source give for “UniProt P39334 (peptide sequence: DDRPVGECLVEVLK, peptide start residue: 85)” here?
A: 0.176

Q: How did the log2 fold change turn out when “UniProt P45524 (peptide sequence: IREFDDLITAR, peptide start residue: 235)” was run?
A: -0.25

Q: “UniProt P56262 (peptide sequence: AAVAWYGK, peptide start residue: 165)” was tested. Which log2 fold change did it give?
A: 0.278

Q: How did the log2 fold change turn out when “UniProt P42909 (peptide sequence: DVNVGNMHFSEGKK, peptide start residue: 104)” was run?
A: 0.503

Q: How did the log2 fold change turn out when “UniProt P45563 (peptide sequence: TYKPDFTPR, peptide start residue: 19)” was run?
A: 0.521

Q: How did the log2 fold change turn out when “UniProt P63235 (peptide sequence: NLLPAAFAK, peptide start residue: 323)” was run?
A: -0.634

Q: “UniProt P46890 (peptide sequence: NAMMEQALETGK, peptide start residue: 78)” was tested. Which log2 fold change did it give?
A: -0.509

Q: Which log2 fold change does the source give for “UniProt P45544 (peptide sequence: AISDLVADGVLIR, peptide start residue: 55)” here?
A: -0.218

Q: For “UniProt P45475 (peptide sequence: VGDWLEMAK, peptide start residue: 47)”, which log2 fold change is on record?
A: 0.406

Q: How did the log2 fold change turn out when “UniProt P39358 (peptide sequence: NIFADESHDIYTVR, peptide start residue: 5)” was run?
A: 0.185

Q: With “UniProt P39356 (peptide sequence: IFLAGGER, peptide start residue: 287)” as the target, how does the log2 fold change read?
A: -0.234

Q: How did the log2 fold change turn out when “UniProt P39360 (peptide sequence: KCAEQISYGLGYRNENEHLR, peptide start residue: 240)” was run?
A: -0.744

Q: “UniProt P45804 (peptide sequence: DLVVDGER, peptide start residue: 560)” was tested. Which log2 fold change did it give?
A: 0.0315

Q: With “UniProt P39396 (peptide sequence: TDKETPYVPIPEGGVK, peptide start residue: 696)” as the target, how does the log2 fold change read?
A: -0.163

Q: Which log2 fold change does the source give for “UniProt P52645 (peptide sequence: LPGNDCPQGKECEEKQ, peptide start residue: 864)” here?
A: 0.98

Q: With “UniProt P42620 (peptide sequence: STGGKFQR, peptide start residue: 18)” as the target, how does the log2 fold change read?
A: 0.465

Q: How did the log2 fold change turn out when “UniProt P46122 (peptide sequence: GISVDQLGFVR, peptide start residue: 160)” was run?
A: -0.169

Q: Which log2 fold change does the source give for “UniProt P39376 (peptide sequence: HLLQQLESNLAELR, peptide start residue: 80)” here?
A: -0.507

Q: With “UniProt P51981 (peptide sequence: LDNHLISER, peptide start residue: 152)” as the target, how does the log2 fold change read?
A: 0.94

Q: “UniProt P46853 (peptide sequence: GLTVTPYQNR, peptide start residue: 116)” was tested. Which log2 fold change did it give?
A: 0.385

Q: Which log2 fold change does the source give for “UniProt P52613 (peptide sequence: LQAWQTLQER, peptide start residue: 108)” here?
A: -0.354

Q: Which log2 fold change does the source give for “UniProt P46883 (peptide sequence: HQEMGQPNVSTERR, peptide start residue: 470)” here?
A: -0.577

Q: For “UniProt P42628 (peptide sequence: GVIADASTPAGR, peptide start residue: 8)”, which log2 fold change is on record?
A: -0.165

Q: Which log2 fold change does the source give for “UniProt P41052 (peptide sequence: QQLQEILSQAK, peptide start residue: 76)” here?
A: 0.194
